Results deposited as PubChem BioAssay AID1508597 (Cure First, 2020).

Test: 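Survival screen with siRNA in ovarian cancer cells derived from patients, with or without rucaparib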 (primary screen)
Cells: human ovarian carcinoma lines grown from tumours: OCI-P5x (papillary serous) and OCI-C5x (clear cell)
Reagents: siRNA pool against human genes, 1.25 pmol siRNA per well
Duration: 72 h or 96 h, depending on the cell culture
Treatment: rucaparib 20 µM (about IC30) or vehicle, present until read-out
Rucaparib or vehicle: Rucaparib
Cell line: OCI-P5x (serous)
Measured: 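Luminescent ATP-based viability assay read 72 or 96 h after transfection, depending on culture, given as normalised percent viability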
Scale: viability, normalised: higher = more viable cells remaining
Hit rule: 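Active when normalised viability falls below 80 percent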
Meaning of the calls: active = viability under 80%; inactive = viability 80% or more
This is an unselected part of the about 2,100 reagents, under one of the conditions tested. 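Calls flag viability under 80% in either arm, not effects specific to rucaparib; the reference for percent is not stated.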 Unmarked entries are inactive. A reagent listed more than once was tested more than once; the source does not tell the runs apart. Not stated in the record: the 100% reference.

| gene symbol | technical replicate | viability, normalised (%) |
| --- | --- | --- |
| DCLK1 (GeneID 9201) | 1 | 89.5 |
| DCLK1 (GeneID 9201) | 2 | 105 |
| DCLK1 (GeneID 9201) | 3 | 111 |
| SSRP1 (GeneID 6749) | 1 | 88.9 |
| SSRP1 (GeneID 6749) | 1 | 32.2 (active) |
| SSRP1 (GeneID 6749) | 2 | 44.2 (active) |
| SSRP1 (GeneID 6749) | 2 | 61.2 (active) |
| SSRP1 (GeneID 6749) | 3 | 76 (active) |
| SSRP1 (GeneID 6749) | 3 | 37.9 (active) |
| KMT2E (GeneID 55904) | 1 | 66.3 (active) |
| KMT2E (GeneID 55904) | 2 | 54.1 (active) |
| KMT2E (GeneID 55904) | 3 | 70.8 (active) |
| ROBO1 (GeneID 6091) | 1 | 53.1 (active) |
| ROBO1 (GeneID 6091) | 2 | 55.9 (active) |
| ROBO1 (GeneID 6091) | 3 | 55.1 (active) |
| JUNB (GeneID 3726) | 1 | 75.6 (active) |
| JUNB (GeneID 3726) | 2 | 64.7 (active) |
| JUNB (GeneID 3726) | 3 | 70.3 (active) |
| USH2A (GeneID 7399) | 1 | 52 (active) |
| USH2A (GeneID 7399) | 2 | 52.3 (active) |
| USH2A (GeneID 7399) | 3 | 79.3 (active) |
| AK1 (GeneID 203) | 1 | 114 |
| AK1 (GeneID 203) | 2 | 113 |
| AK1 (GeneID 203) | 3 | 129 |
